According to US20240383984A1 (Genentech, published 2024):
These are yes or no findings as the source states them, for the method shown. Some results given as binding are weak or reduced against the parent protein; the word gives no strength.

Protein sequences, listed by entry. Tags and fused reporters are not part of them. Residues count along the entry.
UniProt P07766, residues 23-126: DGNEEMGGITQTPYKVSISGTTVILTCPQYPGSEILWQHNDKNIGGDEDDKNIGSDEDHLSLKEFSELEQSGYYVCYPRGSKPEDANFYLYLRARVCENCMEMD

B1: bis-Fab B (bispecific antibody, V domains shown)
VH 1: EVQLVESGPGLVKPSETLSLTCTVSGFSLTRFGVHWVRQPPGKGLEWLGVIWRGGSTDYNAAFVSRLTISKDNSKNQVSLKLSSVTAADTAVYYCSNHYYGSSDYALDNWGQGTLVTVSS
VL 1: DIQMTQSPSSLSASVGDRVTITCKASQDVRNLVVWFQQKPGKAPKLLIYSGSYRYSGVPSRFSGSGSGTDFTLTISSLQPEDFATYYCQQHYSPPYTFGQGTKVEIK
VH 2: EVQLVQSGAEVKKPGASVKVSCKASGFTFTSYYIHWVRQAPGQGLEWIGWIYPENDNTKYNEKFKDRVTITADTSTSTAYLELSSLRSEDTAVYYCARDGYSRYYFDYWGQGTLVTVSS
VL 2: DIVMTQSPDSLAVSLGERATICCKSSQSLLNSRTRKNYLAWYQQKPGQSPKLLIYWTSTRKSGVPDRFSGSGSGTDFTLTISSLQAEDVAVYYCKQSFILRTFGQGTKVEIK
notes: bis-Fab: 1G7.v85 Fab (HC A114C, constant part) crosslinked to 38E4.v1 Fab (LC N22C)
B2: bis-Fab D (bispecific antibody, V domains shown)
VH 1: EVQLVESGPGLVKPSETLSLTCTVSGFSLTRFGVHWVRQPPGKGLEWLGVIWRGGSTDYNAAFVSRLTISKDNSKNQVSLKLSSVTAADTAVYYCSNHYYGSSDYALDNWGQGTLVTVSS
VL 1: DIQMTQSPSSLSASVGDRVTITCKASQDVRNLVVWFQQKPGKAPKLLIYSGSYRYSGVPSRFSGSGSGTDFTLTISSLQPEDFATYYCQQHYSPPYTFGQGTKVEIK
VH 2: EVQLVQSGAEVKKPGASVKVSCKASGFTFTSYYIHWVRQAPGQGLEWIGWIYPENDNTKYNEKFKDRVTITADTSTSTAYLELSSLRSEDTAVYYCARDGYSRYYFDYWGQGTLVTVSS
VL 2: DIVMTQSPDSLAVSLGERATICCKSSQSLLNSRTRKNYLAWYQQKPGQSPKLLIYWTSTRKSGVPDRFSGSGSGTDFTLTISSLQAEDVAVYYCKQSFILRTFGQGTKVEIK
notes: bis-Fab: 1G7.v85 Fab (LC A149C, constant part) crosslinked to 38E4.v1 Fab (LC N22C)
B3: F(ab′)2 A (bispecific antibody, V domains shown)
VH 1: EVQLVESGPGLVKPSETLSLTCTVSGFSLTRFGVHWVRQPPGKGLEWLGVIWRGGSTDYNAAFVSRLTISKDNSKNQVSLKLSSVTAADTAVYYCSNHYYGSSDYALDNWGQGTLVTVSS
VL 1: DIQMTQSPSSLSASVGDRVTITCKASQDVRNLVVWFQQKPGKAPKLLIYSGSYRYSGVPSRFSGSGSGTDFTLTISSLQPEDFATYYCQQHYSPPYTFGQGTKVEIK
VH 2: EVQLVQSGAEVKKPGASVKVSCKASGFTFTSYYIHWVRQAPGQGLEWIGWIYPENDNTKYNEKFKDRVTITADTSTSTAYLELSSLRSEDTAVYYCARDGYSRYYFDYWGQGTLVTVSS
VL 2: DIVMTQSPDSLAVSLGERATINCKSSQSLLNSRTRKNYLAWYQQKPGQSPKLLIYWTSTRKSGVPDRFSGSGSGTDFTLTISSLQAEDVAVYYCKQSFILRTFGQGTKVEIK

Target: T1, human CD3ε (human, UniProt P07766 23-126, limits assumed)
T1 construct: also called hCD3ε
Assay: ELISA on CD3

binding, binds:
B1
B2
B3
